No constants are given. Whether binding was seen depends on the method and setting. Binding seen in cells or lysates may run through a third protein. These calls come from enrichment with a bait or labelling near it, and not all partners need be listed. Where a sequence is shown, tags or fusion partners need not be part of it. Blank lines part the entries; values can stand above or below the binder they belong to.
Assays:
[1] = molecular target: T1, CASK-β, full-length wild type, tagged with a C-terminal YFP (Drosophila) (UniProt Q24210); test: affinity purification with mass spectrometry; as a1, but CASK-YFP expressed with C164-GAL4 (a subset of adult neurons)
T1 sequence: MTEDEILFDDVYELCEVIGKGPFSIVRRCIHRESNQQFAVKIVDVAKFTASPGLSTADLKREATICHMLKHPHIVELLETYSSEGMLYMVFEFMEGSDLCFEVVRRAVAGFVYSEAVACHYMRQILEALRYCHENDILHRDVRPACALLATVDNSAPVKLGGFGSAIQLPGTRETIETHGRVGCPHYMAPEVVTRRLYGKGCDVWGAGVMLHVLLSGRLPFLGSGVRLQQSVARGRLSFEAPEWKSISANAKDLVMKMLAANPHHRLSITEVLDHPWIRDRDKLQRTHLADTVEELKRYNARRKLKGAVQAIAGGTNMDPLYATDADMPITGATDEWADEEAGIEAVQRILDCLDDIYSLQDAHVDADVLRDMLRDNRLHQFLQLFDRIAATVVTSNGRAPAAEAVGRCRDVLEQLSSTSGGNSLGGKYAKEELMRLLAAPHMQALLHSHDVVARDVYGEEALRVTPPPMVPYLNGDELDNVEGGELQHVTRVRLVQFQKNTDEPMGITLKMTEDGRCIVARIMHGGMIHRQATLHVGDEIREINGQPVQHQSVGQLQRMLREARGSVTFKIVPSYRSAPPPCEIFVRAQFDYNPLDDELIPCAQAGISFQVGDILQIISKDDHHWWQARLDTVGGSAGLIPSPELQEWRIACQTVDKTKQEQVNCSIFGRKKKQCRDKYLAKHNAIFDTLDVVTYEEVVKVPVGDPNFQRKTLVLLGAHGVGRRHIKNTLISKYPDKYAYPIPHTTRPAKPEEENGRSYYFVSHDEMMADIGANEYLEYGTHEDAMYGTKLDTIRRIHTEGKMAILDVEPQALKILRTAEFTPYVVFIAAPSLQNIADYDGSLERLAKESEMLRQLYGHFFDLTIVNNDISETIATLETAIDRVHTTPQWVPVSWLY

[2] = molecular target: T1, CASK-β, full-length wild type, tagged with a C-terminal YFP (Drosophila); test: affinity purification with mass spectrometry; as a1, but CASK-YFP (full length, ΔL27 or ΔCaMK) expressed with TH-GAL4 (dopaminergic neurons); decreased: peptide ratio mutant/full length <= 0.5
[3] = molecular target: T1, CASK-β, full-length wild type, tagged with a C-terminal YFP (Drosophila); test: affinity purification with mass spectrometry; CASK-YFP expressed with C155-GAL4 (all neurons) on a CASK-β null background; about 100 adult heads, solubilised with deoxycholic acid and Triton X-100, GFP-TRAP beads overnight at 4°C, washed in 20 mM Tris pH 7.2, 100 mM NaCl, 1% deoxycholic acid, 1% Triton X-100; SDS-PAGE, LC-MS/MS; hits: >4 unique peptides and at least 4-fold over the control GFP precipitation
[4] = molecular target: T1, CASK-β, full-length wild type, tagged with a C-terminal YFP (Drosophila); test: affinity purification with mass spectrometry; CASK-YFP precipitated with GFP-TRAP beads from adult head lysate as in a1; the GAL4 driver of this hit is not told

- binding [1]: binds
B1: CHP (protein, UniProt P12024 30-1315)
chain: SMFDREMEETHYPPCTYNVMCTCSKSSTDLGIVHCKNVPFPALPRMVNQSKVFMLHMENTGLREIEPYFLQSTGMYRLKISGNHLTEIPDDAFTGLERSLWELILPQNDLVEIPSKSLRHLQKLRHLDLGYNHITHIQHDSFRGLEDSLQTLILRENCISQLMSHSFSGLLILETLDLSGNNLFEIDPNVFVDGMPRLTRLLLTDNILSEIPYDALGPLKSLRTLDISHNVIWSLSGNETYEIKASTKLNLDNLHLEYNHIEVLPPNSFKYFDTVNRTFFDGNPIHTLREDAFKPARIREIYMRYCGLTNISPVAFDSLVNSLQILDLSGNNLTKLHHKLFNNFDVLRVISMRDNKIKIQKPTETFNAVHYTLLKLDLSGDRNDPTNLQTLRNMTRMRNMRSLSISRLGSSSVGPEDFKDFGVELEDLQITRASLSGIQSHAFKHVRGLKRLDFSENGISSIENDAFHEIGHSLISLKMSHGYSGSALPAEPLRHLTSLQELDFSNNHISSMSDTSFHFLKNLRLLELHDNRIEQVLKGTFQGDIHSKLEEISLRFNHLTSISQHTFFDLEALRKLHLDDNKIDKIERRAFMNLDELEYLSLRGNKINNLADESFQNLPKLEILDMAFNQLPNFNFDYFDQVGTLSNLNVNVSHNQIRQLMYNSSWSGRNEHGGMYHSNIKILDLSHNNISIIHPGYFRPAEISLTHLHLGYNSLMNTTRDVFGNMPHLQWLDLSYNWIHELDFDAFKNTKQLQLVFFGHNYLSDIPQDIFKPVQGLRIVDFSHNHLRGLPDNLFYNGGMEKLDVSHNMMLKIPSSSLSSLAALTLCELHLSNNFISTIHSMDLSNKFRSLRYLDISYNYLLRIDDAVFATMPKLAVLDLSHNRDLKVMDKSFMGLENSLIKLGLENISLSTVPEIRLKYLREFRLGYNELPSIPQELAHNMSNLRMLDLSNNDLTNVPLMTQALPHLRRLMLSGNPITSLNNNSFDGVNEDLEMLDISNFRLHYFEYGCLDSLPHLRSLKLTAYSHLEHFNIPHLLRHHYNIRQLWIEAPQPFTRIVKKGSGPTQEMQTLQLGNPTDLQREMEGHLPSKLTNITFSGPQFTNLNERILRGMRSPYLYMQLFNTSLQALPPNFFKYMGRVRNISLDIRYHNRNLKKIPNPNTGAVPYLPNSVFLTDLKMSHTDLNCDCDLGWVEFWQRKRRQYICSSQTWTDTVFRTFMNSPCQVYGRHNCDEHDDDLRETRCENKGGQQLMEALKFDLECGWDNANCREAAFVVVMVCVAMVFWM

- binding [2]: binds
- binding [3]: binds
B2: TPI (enzyme, UniProt P29613 1-247)
chain: MSRKFCVGGNWKMNGDQKSIAEIAKTLSSAALDPNTEVVIGCPAIYLMYARNLLPCELGLAGQNAYKVAKGAFTGEISPAMLKDIGADWVILGHSERRAIFGESDALIAEKAEHALAEGLKVIACIGETLEEREAGKTNEVVARQMCAYAQKIKDWKNVVVAYEPVWAIGTGQTATPDQAQEVHAFLRQWLSDNISKEVSASLRIQYGGSVTAANAKELAKKPDIDGFLVGGASLKPEFVDIINARQ

- binding [4]: binds
B3: DJ-1 (dj-1β) (protein, UniProt Q9VA37 1-187)
chain: MSKSALVILAPGAEEMEFIIAADVLRRAGIKVTVAGLNGGEAVKCSRDVQILPDTSLAQVASDKFDVVVLPGGLGGSNAMGESSLVGDLLRSQESGGGLIAAICAAPTVLAKHGVASGKSLTSYPSMKPQLVNNYSYVDDKTVVKDGNLITSRGPGTAYEFALKIAEELAGKEKVQEVAKGLLVAYN

- binding [1]: binds
B4: PRM (protein, UniProt P35415 1-879)
chain: MSSSQAVRSSKYSYRATSTGPGTADVNIEYIQDLSSLSRLEDKIRLLQDDLEVERELRQRIEREKADLSVQVIQMSERLEEAEGGAEHQFEANRKRDAELLKLRKLLEDVHLESEETTLLLKKKHNEIITDFQEQVEILTKNKARAEKDKAKFQTEVYELLSQIESYNKEKIVSEKHISKLEVSISELNVKIEELNRTVIDISSHRSRLSQENIELTKDVQDLKVQLDTVSFSKSQVISQLEDARRRLEDEDRRRSLLESSLHQVEIELDSVRNQLEEESEARIDLERQLVKANADATSWQNKWNSEVAARAEEVEEIRRKYQVRITELEEHIESLIVKVNNLEKMKTRLASEVEVLIIDLEKSNNSCRELTKSVNTLEKHNVELKSRLDETIILYETSQRDLKNKHADLVRTVHELDKVKDNNNQLTRENKKLGDDLHEAKGAINELNRRLHELELELRRLENERDELTAAYKEAEAGRKAEEQRGQRLAADFNQYRHDAERRLAEKDEEIEAIRKQTSIEIEQLNARVIEAETRLKTEVTRIKKKLQIQITELEMSLDVANKTNIDLQKVIKKQSLQLTELQAHYEDVQRQLQATLDQYAVAQRRLAGLNGELEEVRSHLDSANRAKRTVELQYEEAASRINELTTANVSLVSIKSKLEQELSVVASDYEEVSKELRISDERYQKVQVELKHVVEQVHEEQERIVKLETIKKSLEVEVKNLSIRLEEVELNAVAGSKRIISKLEARIRDLELELEEEKRRHAETIKILRKKERTVKEVLVQCEEDQKNLILLQDALDKSTAKINIYRRQLSEQEGVSQQTTTRVRRFQRELEAAEDRADTAESSLNIIRAKHRTFVTTSTVPGSQVYIQETTRTITE
